For at least one compound, name, drawing or mass did not settle the structure.
System: glucose 6-phosphate dehydrogenase
Assay: Stabilization of glucose 6-phosphate dehydrogenase in a reagent for measuring the activity of creatine kinase (residual activity after storage)
Assay type: biochemical
Conditions: 10 mM additive in reagent solution 1 (pH 6.6), activity immediately after preparation = 100%; for Residual activity after 3 months (%): stored at 10° C. for 3 months; for Residual Activity after 12 months (%): stored at 10° C. for 12 months

| Structure (SMILES) | Residual activity after 3 months (%) | Residual Activity after 12 months (%) |
| --- | --- | --- |
| O=C(NNc1ccccc1)NNc1ccccc1 [II-10, diphenylcarbazide] | 85.5 | 39.2 |
| S=C(NNc1ccccc1)NNc1ccccc1 [II-11, diphenylthiocarbazide] | 87.3 | 40.5 |

— patent US5424204A, “Method for stabilizing glucose 6-phosphate dehydrogenase with hydroxylamines, aldehyde scavengers, dimethylthiocarbamoyl chloride or 2-(2-aminoethylamino) ethanol” (Kyowa Medex Co., Ltd., priority 1993, dated 1995)
